PubChem BioAssay AID1508597 – Cure First – 2020
Aim: 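Knock-downs altering ovarian cancer cell survival with or without PARP inhibitor rucaparib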 (primary screen). System: human ovarian carcinoma lines grown from tumours: OCI-P5x (papillary serous) and OCI-C5x (clear cell). Reagent: siRNA pool against human genes, 1.25 pmol siRNA per well. Timing: 72 h or 96 h, depending on the cell culture. Challenge: rucaparib 20 µM (about IC30) or vehicle, present until read-out. Read-out: 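Luminescent ATP-based viability assay read 72 or 96 h after transfection, depending on culture, given as normalised percent viability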. Scale: viability, normalised: higher = more viable cells remaining. Rule for the call: 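a well counts as a hit if its normalised viability is under 80 percent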. Meaning of the calls: active = viability under 80%; inactive = viability 80% or more.
In all, the deposit lists about 2,100 reagents; this is a part drawn at random. 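Calls flag viability under 80% in either arm, not effects specific to rucaparib; the reference for percent is not stated.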 Not given: the 100% reference.

target gene | rucaparib or vehicle | cell line | technical replicate | viability, normalised (%) | Call
STYK1 (STY kinase 1) | Rucaparib | OCI-C5x (clear cell) | 1 | 67.6 | active
STYK1 (STY kinase 1) | Rucaparib | OCI-C5x (clear cell) | 2 | 48.8 | active
STYK1 (STY kinase 1) | Rucaparib | OCI-C5x (clear cell) | 3 | 48.5 | active
STYK1 (STY kinase 1) | Rucaparib | OCI-P5x (serous) | 1 | 82.9 | inactive
STYK1 (STY kinase 1) | Rucaparib | OCI-P5x (serous) | 2 | 74.4 | active
STYK1 (STY kinase 1) | Rucaparib | OCI-P5x (serous) | 3 | 44.7 | active
STYK1 (STY kinase 1) | Vehicle | OCI-C5x (clear cell) | 1 | 46.7 | active
STYK1 (STY kinase 1) | Vehicle | OCI-C5x (clear cell) | 2 | 54.5 | active
STYK1 (STY kinase 1) | Vehicle | OCI-C5x (clear cell) | 3 | 56.2 | active
STYK1 (STY kinase 1) | Vehicle | OCI-P5x (serous) | 1 | 85.4 | inactive
STYK1 (STY kinase 1) | Vehicle | OCI-P5x (serous) | 2 | 79.6 | active
STYK1 (STY kinase 1) | Vehicle | OCI-P5x (serous) | 3 | 70.7 | active
FANCA (FA complementation group A) | Rucaparib | OCI-C5x (clear cell) | 1 | 54.8 | active
FANCA (FA complementation group A) | Rucaparib | OCI-C5x (clear cell) | 2 | 47.8 | active
FANCA (FA complementation group A) | Rucaparib | OCI-C5x (clear cell) | 3 | 59.1 | active
FANCA (FA complementation group A) | Rucaparib | OCI-P5x (serous) | 1 | 96.8 | inactive
FANCA (FA complementation group A) | Rucaparib | OCI-P5x (serous) | 2 | 107 | inactive
FANCA (FA complementation group A) | Rucaparib | OCI-P5x (serous) | 3 | 88.1 | inactive
FANCA (FA complementation group A) | Vehicle | OCI-C5x (clear cell) | 1 | 55 | active
FANCA (FA complementation group A) | Vehicle | OCI-C5x (clear cell) | 2 | 55.5 | active
FANCA (FA complementation group A) | Vehicle | OCI-C5x (clear cell) | 3 | 50.7 | active
FANCA (FA complementation group A) | Vehicle | OCI-P5x (serous) | 1 | 85.5 | inactive
FANCA (FA complementation group A) | Vehicle | OCI-P5x (serous) | 2 | 91.8 | inactive
FANCA (FA complementation group A) | Vehicle | OCI-P5x (serous) | 3 | 97.4 | inactive
DDX46 (DEAD-box helicase 46) | Rucaparib | OCI-C5x (clear cell) | 1 | 64.2 | active
DDX46 (DEAD-box helicase 46) | Rucaparib | OCI-C5x (clear cell) | 2 | 54.2 | active
DDX46 (DEAD-box helicase 46) | Rucaparib | OCI-C5x (clear cell) | 3 | 48.4 | active
DDX46 (DEAD-box helicase 46) | Rucaparib | OCI-P5x (serous) | 1 | 66.6 | active
DDX46 (DEAD-box helicase 46) | Rucaparib | OCI-P5x (serous) | 2 | 59.9 | active
DDX46 (DEAD-box helicase 46) | Rucaparib | OCI-P5x (serous) | 3 | 58.2 | active
DDX46 (DEAD-box helicase 46) | Vehicle | OCI-C5x (clear cell) | 1 | 44.2 | active
DDX46 (DEAD-box helicase 46) | Vehicle | OCI-C5x (clear cell) | 2 | 51.3 | active
DDX46 (DEAD-box helicase 46) | Vehicle | OCI-C5x (clear cell) | 3 | 50 | active
DDX46 (DEAD-box helicase 46) | Vehicle | OCI-P5x (serous) | 1 | 66.4 | active
DDX46 (DEAD-box helicase 46) | Vehicle | OCI-P5x (serous) | 2 | 75.9 | active
DDX46 (DEAD-box helicase 46) | Vehicle | OCI-P5x (serous) | 3 | 61.3 | active
ADCK1 (aarF domain containing kinase 1) | Rucaparib | OCI-C5x (clear cell) | 1 | 68.2 | active
ADCK1 (aarF domain containing kinase 1) | Rucaparib | OCI-C5x (clear cell) | 2 | 59.2 | active
ADCK1 (aarF domain containing kinase 1) | Rucaparib | OCI-C5x (clear cell) | 3 | 88 | inactive
ADCK1 (aarF domain containing kinase 1) | Rucaparib | OCI-P5x (serous) | 1 | 116 | inactive
ADCK1 (aarF domain containing kinase 1) | Rucaparib | OCI-P5x (serous) | 2 | 101 | inactive
ADCK1 (aarF domain containing kinase 1) | Rucaparib | OCI-P5x (serous) | 3 | 89.1 | inactive
ADCK1 (aarF domain containing kinase 1) | Vehicle | OCI-C5x (clear cell) | 1 | 64.7 | active
ADCK1 (aarF domain containing kinase 1) | Vehicle | OCI-C5x (clear cell) | 2 | 60.4 | active
ADCK1 (aarF domain containing kinase 1) | Vehicle | OCI-C5x (clear cell) | 3 | 56.5 | active
ADCK1 (aarF domain containing kinase 1) | Vehicle | OCI-P5x (serous) | 1 | 68.7 | active
ADCK1 (aarF domain containing kinase 1) | Vehicle | OCI-P5x (serous) | 2 | 72.1 | active
ADCK1 (aarF domain containing kinase 1) | Vehicle | OCI-P5x (serous) | 3 | 85.1 | inactive
TET1 (tet methylcytosine dioxygenase 1) | Rucaparib | OCI-C5x (clear cell) | 1 | 56.7 | active
TET1 (tet methylcytosine dioxygenase 1) | Rucaparib | OCI-C5x (clear cell) | 2 | 48.8 | active
TET1 (tet methylcytosine dioxygenase 1) | Rucaparib | OCI-C5x (clear cell) | 3 | 48.8 | active
TET1 (tet methylcytosine dioxygenase 1) | Rucaparib | OCI-P5x (serous) | 1 | 62.3 | active
TET1 (tet methylcytosine dioxygenase 1) | Rucaparib | OCI-P5x (serous) | 2 | 68 | active
TET1 (tet methylcytosine dioxygenase 1) | Rucaparib | OCI-P5x (serous) | 3 | 71.8 | active
TET1 (tet methylcytosine dioxygenase 1) | Vehicle | OCI-C5x (clear cell) | 1 | 46.6 | active
TET1 (tet methylcytosine dioxygenase 1) | Vehicle | OCI-C5x (clear cell) | 2 | 61 | active
TET1 (tet methylcytosine dioxygenase 1) | Vehicle | OCI-C5x (clear cell) | 3 | 68.7 | active
TET1 (tet methylcytosine dioxygenase 1) | Vehicle | OCI-P5x (serous) | 1 | 67.8 | active
TET1 (tet methylcytosine dioxygenase 1) | Vehicle | OCI-P5x (serous) | 2 | 98.5 | inactive
TET1 (tet methylcytosine dioxygenase 1) | Vehicle | OCI-P5x (serous) | 3 | 85.9 | inactive
